Screening data, single-dose tests

The chains behind the UniProt entries cited, without tags or fusion partners. Residues count along the entry.
UniProt Q8IDJ8, 1-583: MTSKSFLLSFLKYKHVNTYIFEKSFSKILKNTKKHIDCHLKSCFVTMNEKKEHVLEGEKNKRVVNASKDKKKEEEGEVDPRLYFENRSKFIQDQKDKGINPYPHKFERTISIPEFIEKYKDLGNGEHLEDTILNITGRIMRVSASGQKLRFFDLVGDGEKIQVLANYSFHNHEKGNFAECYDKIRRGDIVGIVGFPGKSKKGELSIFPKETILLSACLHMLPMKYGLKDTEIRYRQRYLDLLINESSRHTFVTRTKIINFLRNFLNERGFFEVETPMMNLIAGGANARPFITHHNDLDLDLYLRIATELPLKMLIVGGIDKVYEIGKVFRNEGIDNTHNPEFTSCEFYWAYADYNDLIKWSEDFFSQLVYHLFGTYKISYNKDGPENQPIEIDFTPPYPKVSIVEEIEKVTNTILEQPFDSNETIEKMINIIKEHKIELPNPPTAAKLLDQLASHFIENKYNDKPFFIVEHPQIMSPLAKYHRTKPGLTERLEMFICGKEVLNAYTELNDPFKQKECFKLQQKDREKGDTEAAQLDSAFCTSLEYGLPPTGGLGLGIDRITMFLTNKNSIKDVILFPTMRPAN

From ChEMBL document CHEMBL3988442, “University of Dundee, Small-Polar-MMV Screening Library” (2021).

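Enzyme assay of the cytosolic lysyl-tRNA synthetase in 384-well plates, read by luminescence. Target: Lysine-tRNA ligase, Plasmodium falciparum 3D7 (UniProt Q8IDJ8). Compounds at 30 µM. Direction is inferred from only a few compounds that gave an IC50; most scored high, so higher reads as stronger inhibition. Size under these conditions: about 69,000 compounds, about 49 of them at 50% or above in at least one test.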

The filed quantity is “Percent Effect” (%).
The controls that fix the scale are not given in the record; negative values are as filed.
The compounds are a random part of those screened.

structure | effect
CCc1nc(CN2CCCN(C(=O)c3cc(C)on3)CC2)cs1 | 1.134
CC(C)CNC[C@H]1COCc2nc3cccnc3n21 | 0.3041
CC(C(=O)NCc1ccnc(Oc2ccc(F)cc2)c1)n1cncn1 (stereo not drawn) | -3.122
Cc1ccc(N(C)C2CCN(C(=O)c3ccsc3)CC2)nn1 | 1.495
CCC[C@H]1CN(S(C)(=O)=O)C[C@@H]1NC(=O)c1ccc(COC)cc1 | 4.923
CC(c1nc(C2CC2)no1)N1CCN(Cc2ccccc2)CC1 (stereo not drawn) | 0.1909
CCNC(=O)[C@@H]1C[C@H](N)CN1C(=O)c1c[nH]c2ccccc12 | 2.695
Cc1cc(C)n(-c2nc(C(=O)NCCS(=O)(=O)N3CCCCC3)cs2)n1 | 1.03
CCCC(C)CN1CCC(n2cc(C3CCCC3)nn2)CC1 (stereo not drawn) | -1.602
CCc1nc(CN2CCCN(C(=O)C3CCOC3)CC2)cs1 (stereo not drawn) | -3.829
CN(C)CC(=O)N1C[C@@H](Oc2ccccn2)[C@H]2OCCC[C@H]21 | -5.727
CCc1ccc(CNC(=O)NC(C)CN2CCOCC2)s1 (stereo not drawn) | 11.36
COCC(=O)N1CCCC1(C)c1nc(C)cc(O)n1 (stereo not drawn) | 3.92
Cc1ccccc1C(=O)N1CCOC2(CNCCOC2)C1 (stereo not drawn) | -0.8326
O=C(CCc1ccccc1Br)NCC(=O)NCc1ccccc1 | 4.307
c1cncc(CN2CCn3cc(CN4CCCCC4)nc3C2)c1 | 3.526
O=C1NCCO[C@H]2CN(C(=O)CCc3ccccc3Cl)CC[C@@H]12 | -4.4
Cn1cnn(Cc2ccccc2F)c1=O | 7.627
O=C(N[C@@H]1CCNC[C@H]1O)c1cc(F)cc(Cl)c1 | -5.154
O=C(NCC1CCOC1)Nc1ccc(Oc2cccc(F)c2)nc1 (stereo not drawn) | 0.5154
CN(C)Cc1ccc(C(=O)N2CCCC(COc3ccc(F)cc3)C2)o1 (stereo not drawn) | 0.06428
Cc1nc(C2CCCN(C(=O)COCc3ccccc3)C2)no1 (stereo not drawn) | 1.683
COCCOCC(=O)Nc1cc(C)ccc1F | 9.199
Cc1cncc(C2CCCN(C(=O)c3cn(C)nc3C)C2)n1 (stereo not drawn) | 4.526
Cn1nc(C(=O)NC2CCCC2)cc1NC(=O)C1CC1 | 3.132
Cc1occc1C(=O)N1CCC2(CC1)C(c1cnn(C)c1)CC(=O)N2C (stereo not drawn) | -3.504
O=C(CN1CCS(=O)(=O)CC1)NC1CCOc2ccccc21 (stereo not drawn) | 7.918
Oc1ccccc1N1CCN(c2ncnc3sc4c(c23)CCNC4)CC1 | -2.282
NC[C@H]1CC[C@H](C(NC(=O)C2CC2)c2ccccn2)CC1 (stereo partly drawn) | 3.889
O=C1CC2(CCCCN2CC2CC2)CN1c1ccccc1 (stereo not drawn) | 6.379
Cc1cc(C)n(CCNCc2cc(-c3ccccc3)c[nH]c2=O)n1 | 0.2634
COCCN1CCN(c2ccc(C)nn2)Cc2cccnc21 | 5.86
CN1CCN([C@@H]2CN(C(=O)c3ccsc3)[C@@H]3CCCO[C@H]23)CC1 | 5.088
COc1ccc(CN2C[C@H](OCC3CCOCC3)[C@H]3COC[C@H]32)cc1 | 2.047
Nc1ncnc2nc(C3CCN(C(=O)Cc4ccc(F)cc4)C3)ccc12 (stereo not drawn) | 1.837
COc1ccc2c(C)c(C(=O)NCC3CN(S(C)(=O)=O)CCO3)oc2c1 (stereo not drawn) | -3.584
Cc1cccc(CN2CC3C[C@]3(NC(=O)c3cccc(F)c3)C2)n1 (stereo partly drawn) | 0.7831
Cc1ccc(CC(=O)N2CCCC(c3cc(C)[nH]n3)C2)cn1 (stereo not drawn) | 6.129
Cc1oc(C)c(C(=O)NCc2cccnc2N(C)C)c1C | 2.607
O=C(NCCc1cc(F)ccc1F)NC(CO)c1ccccc1 (stereo not drawn) | -2.973
COc1nccnc1N1C[C@@H]2CC[C@H](C1)N(CC=C(C)C)C2=O | 10.05
COc1ccc(C(NCc2cccc(O)c2)C2CC2)cc1 (stereo not drawn) | 0.314
Cn1ccnc1C(=O)N1CCC2(CCCN2CC2CC2)CC1 | 0.6295
COc1ccc(Cl)cc1S(=O)(=O)N(C)CC(N)=O | 4.288
Cc1nccn1C1(C(=O)O)CCN(Cc2ccc3occc3c2)CC1 | 5.425
CC1CCC(N2CCC(NS(=O)(=O)CCOC(C)C)CC2)CC1 (stereo not drawn) | 0.6445
N#CCC(=O)NCc1nnc2n1CCN(Cc1nccs1)C2 | -1.671
CCNC(=O)C1CCCN(C(=O)Nc2ccc3c(c2)CCCN3C)C1 (stereo not drawn) | 1.367
O=C(c1ccc(F)cc1Cl)N1CCC(Nc2cccnn2)CC1 | 1.652
CC(C)SCc1cccc(NC2CCN(C)C2=O)c1 (stereo not drawn) | -0.0856
CC(C)OCCN1CCN(c2ccc(Cl)cn2)CC1 | 3.913
CCn1cc(S(=O)(=O)NC2CCCN(CCCc3ccccc3)C2)cn1 (stereo not drawn) | 5.189
Cc1nc2c(c(=O)[nH]1)CN(C(=O)CCC1CCCN(C)C1)C2 (stereo not drawn) | 6.947
Cc1ccc(C)c2c(O)cc(CN3CCNC(=O)C3C)nc12 (stereo not drawn) | 6.762
CC(C)CC(=O)N1CCN(C(=O)N(C)C)CC2(CC(=O)N(C)C2)C1 (stereo not drawn) | 0.1325
c1ccc(-c2nc(CN3CCOC(Cn4cccn4)C3)no2)cc1 (stereo not drawn) | 7.86
CCN(CC)Cc1ccc(C(=O)N2CCCC2Cn2cccn2)o1 (stereo not drawn) | 0.5035
Cc1ccccc1CS(=O)(=O)CC(=O)N(C)Cc1ccccc1 | 4.399
O=C(C1CCCN1S(=O)(=O)C1CCCC1)N1CCSCC1 (stereo not drawn) | 4.74
Cc1ccc(-c2nc(CN3CCn4c(nnc4C4CC4)C3)no2)cc1 | 0.1743
Cc1cnc(NC(=O)c2ccc(-n3ncc(C#N)c3N)cc2)s1 | 1.695
CCCS(=O)(=O)N1C[C@@H](OCc2ccncc2)[C@H]2OCCC[C@H]21 | 2.717
OC[C@@H](O)CN(CCC(F)(F)F)c1ncccn1 | 5.613
Cc1ccsc1CN(CCN(C)C)C(=O)c1ccc(C#N)nc1 | 1.181
O=C(C1CC=CC1)N1CCc2c(COCc3ccncc3)cncc2C1 | 1.406
CN1CCC(CCNC(=O)N2CCN(Cc3ccon3)CC2)CC1 | 9.263
O=C1N(c2cccc(F)c2)Cc2nc(=O)[nH]n21 | 3.011
CC(C)(C)OC(=O)N1CSC[C@@H]1C(=O)NCc1ccsc1 | 1.905
O=C1CCCN1Cc1nnc(SCc2ccc3c(c2)CCC3)o1 | 8.44
O=C(NCC1CCCO1)c1c(-n2cnnn2)sc2c1CCC2 (stereo not drawn) | 3.146
CC1(C(=O)NC2CCCC2)CN(c2cnccn2)CCO1 (stereo not drawn) | 0.8661
COc1ccc2cc(C3CN(C(=O)CCNC(C)=O)CCO3)ccc2c1 (stereo not drawn) | -5.132
O=C(NCc1ccccn1)c1cncc(C2CCCN2)n1 (stereo not drawn) | -0.2899
Cc1ncccc1OC1(C(=O)NCCc2ccccn2)CCNCC1 | -0.8565
CC(C)c1nc(CN2CCCC(O)C2)cs1 (stereo not drawn) | 3.275
Cc1nsc(N2CCN(C(=O)Nc3cccc(C#N)c3)CC2)n1 | 1.359
Cc1nc(N2CCCC2)nc2c1CCN(Cc1ccco1)CC2 | 2.871
Cc1cc(NC(=O)NCc2cccnc2OC(C)C)n(C)n1 | 0.2662
CC(=O)Nc1cc2c(cc1C)OCO2 | -3.754
Cc1cccnc1C(Cc1ccsc1)NCc1cnc(N(C)C)nc1 (stereo not drawn) | 0.07114
CC(C)c1nc(CCn2cncn2)n(-c2ccc3c(c2)OCCO3)n1 | 1.054
COc1cccc(-c2n[nH]c3c2CN(C(=O)C2=C(C)OCCO2)CC3)c1 | -2.608
O=C(c1ccc(=O)[nH]n1)N1CCCC1CCc1ccccc1 (stereo not drawn) | 1.942
COc1cc(C(=O)NC2COc3ccccc3C2)ccc1OCC(N)=O (stereo not drawn) | -3.071
Cn1ncc2c(N3CCCC4(CCNC4)C3)nc(C(C)(C)C)nc21 (stereo not drawn) | 3.475
CCn1ncc2[nH]c(-c3ccc(OC)c(COC)c3)nc21 | 6.942
O=C(c1ccsc1)N1C[C@@H]2CCN(c3cccnc3)C[C@@H]2C1 | -1.997
Nc1cc2c(nn1)CCN(C(=O)C1CCc3ccccc31)C2 (stereo not drawn) | 1.529
Cc1cc(C2CCCCN2C(=O)CN2C(=O)OC(C)(C)C2=O)no1 (stereo not drawn) | 2.01
CN(Cc1nncn1C)C(=O)c1cc(COc2ccccc2F)[nH]n1 | 5.312
Cc1cnn(CC(C)NCc2ccc(S(C)(=O)=O)cc2)c1 (stereo not drawn) | -0.5565
O=C([C@@H]1CCO[C@@H]2CCN(Cc3ccsc3)C[C@@H]21)N1CCCC1 | -0.6717
COc1c(C)cnc(CN2CCOC(Cn3cncn3)C2)c1C (stereo not drawn) | 1.592
Cc1cnn(CCNCc2ccc(C#N)cc2F)c1 | 0.274

For reference, 11 entries once more:

structure	effect
CCNC(=O)[C@@H]1C[C@H](N)CN1C(=O)c1c[nH]c2ccccc12	2.695
Cc1cnn(CCNCc2ccc(C#N)cc2F)c1	0.274
O=C(C1CC=CC1)N1CCc2c(COCc3ccncc3)cncc2C1	1.406
Cc1ncccc1OC1(C(=O)NCCc2ccccn2)CCNCC1	-0.8565
O=C(NCc1ccccn1)c1cncc(C2CCCN2)n1 (stereo not drawn)	-0.2899
CC(C)CC(=O)N1CCN(C(=O)N(C)C)CC2(CC(=O)N(C)C2)C1 (stereo not drawn)	0.1325
CCc1ccc(CNC(=O)NC(C)CN2CCOCC2)s1 (stereo not drawn)	11.36
Cc1ccc(C)c2c(O)cc(CN3CCNC(=O)C3C)nc12 (stereo not drawn)	6.762
c1ccc(-c2nc(CN3CCOC(Cn4cccn4)C3)no2)cc1 (stereo not drawn)	7.86
N#CCC(=O)NCc1nnc2n1CCN(Cc1nccs1)C2	-1.671
Cc1oc(C)c(C(=O)NCc2cccnc2N(C)C)c1C	2.607